Laboratory results reported in patent US7649002B2, “(3,5-dimethylpiperidin-1yl)(4-phenylpyrrolidin-3-yl)methanone derivatives as MCR4 agonists” (Pfizer Inc, priority 2004, dated 2010).
Some of these results come from one statement about several compounds together.

Sequences of proteins named here, by UniProt entry; tags and fusion partners are left off. A change or cut given only in a name is not applied to a line headed by its entry.
UniProt P32245, whole entry: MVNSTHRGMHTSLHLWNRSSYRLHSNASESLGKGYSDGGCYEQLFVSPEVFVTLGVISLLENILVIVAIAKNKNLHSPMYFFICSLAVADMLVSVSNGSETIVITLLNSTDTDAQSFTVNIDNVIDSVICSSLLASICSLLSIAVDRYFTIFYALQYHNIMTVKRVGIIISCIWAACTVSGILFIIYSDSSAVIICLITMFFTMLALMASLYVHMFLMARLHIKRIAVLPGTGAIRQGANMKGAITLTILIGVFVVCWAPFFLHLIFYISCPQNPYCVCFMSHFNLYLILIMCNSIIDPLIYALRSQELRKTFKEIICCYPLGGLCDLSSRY
UniProt P33032: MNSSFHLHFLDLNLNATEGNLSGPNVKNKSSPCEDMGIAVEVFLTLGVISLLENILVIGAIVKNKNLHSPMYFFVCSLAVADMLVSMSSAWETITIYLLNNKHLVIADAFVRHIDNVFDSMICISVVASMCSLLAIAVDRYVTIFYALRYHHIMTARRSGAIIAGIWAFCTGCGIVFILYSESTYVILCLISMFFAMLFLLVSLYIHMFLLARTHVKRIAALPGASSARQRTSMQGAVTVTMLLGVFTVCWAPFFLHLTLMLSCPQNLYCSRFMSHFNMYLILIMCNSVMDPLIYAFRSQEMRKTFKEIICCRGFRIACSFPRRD

What was measured:
human MCR4 receptor = target: T1, human MCR4 receptor (Homo sapiens, UniProt P32245); assay: MCR4 improved functional assay (Protocol E): CHO-K1-MC4R-CRE-β-lactamase reporter; format: cell-based; conditions: versus both MCR1 and MCR5
T1 construct: expressed in transfected cells
Text: (ii) MCR5 Standard Functional Assay Methodology and MCR4 Improved Functional Assay Methodology [Assay Protocol D and E Respectively] […] These cell lines were engineered using protocols akin to those outlined by Zaccolo et al (Zaccolo, M., (2000) Nature, 2(1); 25-29). Compound-induced activation of the MCR5 or MCR4 receptors in these two cell lines stimulated the production, and intracellular accumulation, of the enzyme β-lactamase. The quantity of β-lactamase enzyme produced was directly proportional to the degree to which the test compound activated the MCR5 or MCR4 receptors present on these cells and was quantified using the P-lactamase gene reporter analysis kit that is commercially available from Invitrogen Life Technologies. An in-depth description of this technology and assay protocols are available from the Invitrogen web site (www.invitrogen.com). The protocol listed below provides a summary of that assay methodology. The quantity of β-lactamase enzyme produced by compound-induced activation of the MCR5 or MCR4 receptors expressed in these cell lines was quantified using a LjI Biosystems Analyst™ HT 96.384 plate reader set to excite at a wave length of 405 nm, and measure the energy emitted at wave lengths of 450 nm and 530 nm. Cellular responses were quantified by dividing the measured energy emitted at a wavelength of 450 nm by the measured energy emitted at a wavelength of 530 nm. […] CCF4-AM was dissolved in 100% DMSO to give a final solution concentration of 1 mM. This solution was termed Solution A. Probenecid was dissolved in 200 mM NaOH to give a final solution concentration of 200 mM. This solution was termed Solution D. Composition of the β-lactamase assay dye solution: for 1072 μL of assay dye solution combine: 12 μL of Solution A, 60 μL of Solution B, 925 μL of Solution C and 75 μL of Solution D. […] Cells were grown in T225 vent cap flasks containing 50 ml of growth medium and maintained in a cell incubator at a temperature of 37° C. and in an environment containing 5% CO2. The composition of the growth medium for the CHO-K1-MC5R-CRE-β-lactamase was 90% v/v DMEM supplemented with; Glutamax-1, 25 mM HEPES, 10% v/v foetal calf serum (FCS), 1 mM sodium pyruvate, 0.1 mM non essential amino acids and 800 μg/ml genetic in. For the CHO-K1-MC4R-CRE-β-lactamase this growth media was further supplemented with […] Zeocin. Cells were harvested when they reached 80-90% confluency by first removing the existing growth medium and then washing with PBS that had been pre-warmed to a temperature of 37° C. This PBS was then removed and 5 ml of cell dissociation fluid added to the flask. These cells were incubated for 5 minutes in a cell incubator set at a temperature of 37° C. and in an environment containing 5% CO2 to detach the cells. When cells were detached, pre-warmed growth media was added, the cells re-suspended and mixed gently to achieve a single cell suspension by pipetting. This cell suspension was then used for experimentation, or transferred into a new T225 flask to perpetuate the cell culture. […] For each assay the cell plates were then retuned to a cell incubator maintained at a temperature of 37° C. and in an environment containing 5% CO2 overnight before performing the assay on the second assay day. […] For the MCR4 improved functional assay methodology the solution of cyclohexamide was not added. Subsequently, 10 μL of the test compound solution was transferred to the assay plate. […]

human MCR5 receptor = target: T2, human MCR5 receptor (Homo sapiens, UniProt P33032); assay: MCR5 standard functional assay (Protocol D): CHO-K1-MC5R-CRE-β-lactamase reporter; format: cell-based; conditions: functional potencies, Protocols D and E
T2 construct: expressed in transfected cells
Text: These cell lines were engineered using protocols akin to those outlined by Zaccolo et al (Zaccolo, M., (2000) Nature, 2(1); 25-29). Compound-induced activation of the MCR5 or MCR4 receptors in these two cell lines stimulated the production, and intracellular accumulation, of the enzyme β-lactamase. The quantity of β-lactamase enzyme produced was directly proportional to the degree to which the test compound activated the MCR5 or MCR4 receptors present on these cells and was quantified using the P-lactamase gene reporter analysis kit that is commercially available from Invitrogen Life Technologies. An in-depth description of this technology and assay protocols are available from the Invitrogen web site (www.invitrogen.com). The protocol listed below provides a summary of that assay methodology. The quantity of β-lactamase enzyme produced by compound-induced activation of the MCR5 or MCR4 receptors expressed in these cell lines was quantified using a LjI Biosystems Analyst™ HT 96.384 plate reader set to excite at a wave length of 405 nm, and measure the energy emitted at wave lengths of 450 nm and 530 nm. Cellular responses were quantified by dividing the measured energy emitted at a wavelength of 450 nm by the measured energy emitted at a wavelength of 530 nm. […] CCF4-AM was dissolved in 100% DMSO to give a final solution concentration of 1 mM. This solution was termed Solution A. Probenecid was dissolved in 200 mM NaOH to give a final solution concentration of 200 mM. This solution was termed Solution D. Composition of the β-lactamase assay dye solution: for 1072 μL of assay dye solution combine: 12 μL of Solution A, 60 μL of Solution B, 925 μL of Solution C and 75 μL of Solution D. […] Cells were grown in T225 vent cap flasks containing 50 ml of growth medium and maintained in a cell incubator at a temperature of 37° C. and in an environment containing 5% CO2. […]

CC(C)N1C[C@@H](C(=O)N2C[C@@H](C)[C@](O)(c3ccc(F)cc3)[C@@H](C)C2)[C@H](c2ccc(F)cc2F)C1.Cl [Example 10, (3R,4R,5S)-1-{[(3S,4R)-4-(2,4-difluorophenyl)-1-isopropylpyrrolidin-3-yl]carbonyl}-4-(4-fluorophenyl)-3,5-dimethylpiperidin-4-ol hydrochloride]
selectivity for the MCR4 receptor as compared with the MCR1 and MCR5 receptors (human MCR4 receptor): greater than 10 times | selectivity for MCR4 over MCR5 (human MCR5 receptor): greater than 10 times
